PubChem BioAssay AID504784 – Drosophila RNAi Screening Center – 2011

Screen: 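Genome-wide knock-down for genes giving too much or too little stored lipid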 (primary screen)
System: Drosophila Kc167 embryonic cells
Reagent: long dsRNA against Drosophila genes, about 250 ng dsRNA per well
Time to read-out: 4 days
Challenge: cells fed 400 µM oleic acid bound to BSA
Measured: 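Cells imaged and segmented; ratio of lipid droplet area to nuclear area, log-transformed, then normalised as a B-score over the screen; higher means more stored lipid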
Reading the numbers: droplet/nuclear area B-score: higher = more stored lipid (overstorage)
In all, the deposit lists about 17,000 reagents; this is a random part of those with a known target gene and a result. 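Each column is one replicate's B-score; the combined score over replicates was not deposited, so single values may mislead.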 A plus sign joins genes that one reagent is predicted to hit.

target gene	amplicon	droplet/nuclear area B-score, replicate 1	droplet/nuclear area B-score, replicate 2	droplet/nuclear area B-score, replicate 3
a10 (antennal protein 10)	DRSC11319	2.3	0.1	
adp (adipose)	DRSC06916	-0.473		
bcd + CR14578	DRSC20984	0.493	0.445	
ng2 (new glue 2)	DRSC18803	-1.53	0.268	
Muc68D (Mucin 68D)	DRSC10569	-2.07		
ben (bendless)	DRSC20310	-0.598	-0.276	1.21
ben (bendless)	DRSC21261	0.0127	0.0208	
Coq2 (Coenzyme Q biosynthesis protein 2)	DRSC16516	0.158	-0.905	
Coq2 (Coenzyme Q biosynthesis protein 2)	DRSC21366	0.771	-1.5	
bcd (bicoid)	DRSC12624	0.0903	0.00171	
Vha16-5 (Vacuolar H[+] ATPase 16kD subunit 5)	DRSC02986	-0.266	-1.33	
in (inturned)	DRSC11888	-2.04	0.486	
mAChR-A (muscarinic Acetylcholine Receptor, A-type)	DRSC04702	0.96	-0.0113	
Npc2h (Niemann-Pick type C-2h)	DRSC14297	-0.817	0.224	
vers (versatile)	DRSC10715	3.48	0.777	
vers (versatile)	DRSC23232	-0.0394	0.0241	
CG32237	DRSC08312	0.723	0.478	
CG32237	DRSC08315	-1.29	-1.42	
CG30036	DRSC21334	-0.06	2.13	
CG11911	DRSC00331	-0.793	-1.47	
CG14478	DRSC06450	-0.0726	-0.121	
CG5515	DRSC15825	-0.871	-3.45	
CG31210 (retired record) + CG4836	DRSC22066	-0.348	-1.13	
CG10413	DRSC02052	1.22	1.22	
nrv1 (nervana 1)	DRSC03382	0.691	1.14	
Sgt (small glutamine-rich tetratricopeptide containing protein)	DRSC02812	0.608		
Ost48 (Oligosaccharyltransferase 48kD subunit)	DRSC18693	-0.0488	0.0417	-0.0316
CG10132	DRSC02013	-2.62	0.13	
Idh (Isocitrate dehydrogenase)	DRSC10779	-0.134	2.71	
psq (pipsqueak)	DRSC07668	-4.27	-0.0531	
psq (pipsqueak)	DRSC23094	0.63	0.588	
Spn43Ab (Serpin 43Ab)	DRSC06781	0.0634	0.771	
CG5726	DRSC06946	-0.0314	0.0373	
Rad23	DRSC17167	0.00854		
nudE	DRSC09000	0.471	-0.699	
nudE	DRSC10962	-0.113	1.35	
alc (alicorn)	DRSC07062	0.0512	0.558	
alc (alicorn)	DRSC21464	-0.00515	-0.554	
alc (alicorn)	DRSC23316	-0.482	-2.11	
wuho	DRSC18101	-1.66		
Pkn (Protein kinase N)	DRSC06809	0.152	-3.93	
Pkn (Protein kinase N)	DRSC06810	0	1.57	
Targ1 (Terminal ADP-ribose protein glycohydrolase 1)	DRSC11616	0.404	-1.08	
Esyt2 (Extended synaptotagmin-like protein 2)	DRSC16082	1.38	0.815	
Syx8 (Syntaxin 8)	DRSC10402	-0.292	-0.434	2.33
Syx8 (Syntaxin 8)	DRSC22498	-0.981	-2.2	
Reck (Reversion-inducing-cysteine-rich protein with kazal motifs)	DRSC10504	-0.721	-0.456	1.31
Reck (Reversion-inducing-cysteine-rich protein with kazal motifs)	DRSC10505	-0.402	-0.869	
Peritrophin-15b	DRSC02266	-0.896	-1.01	
CG15638	DRSC01875	-0.452	-0.585	
CG15576	DRSC18064	0.681	-0.0799	
Vps35 (Vacuolar protein sorting 35)	DRSC04519	-0.529	0.339	
CG32333	DRSC08627	-4.28	0.283	
CG32333	DRSC08629	0.121	2.71	
Hus1-like	DRSC12353	-0.0423	1.7	
CG11458	DRSC11666	-0.336	-0.658	
chas (chascon)	DRSC19508	-0.313	-1.43	
chas (chascon)	DRSC19509	-1.05	-1.41	
CSN1a (COP9 signalosome subunit 1a)	DRSC01951	1.36	0.355	
CG10809	DRSC09802	-1.21	-2.92	
Vps36 (Vacuolar protein sorting 36)	DRSC09785	-1.47	-2.03	
CG18467	DRSC06758	0.801	0.395	
CG15879	DRSC08487	-1.52	0.00339	
dmrt93B (doublesex-Mab related 93B)	DRSC15865	-0.329	-0.408	
CG13021	DRSC17893	2.39	-0.197	
Rrp42	DRSC07161	0.616	0.564	
CG11694	DRSC14354	0.949	-0.618	
Bfc (Booster for Crq)	DRSC08623	-1.51	-0.556	
Est-P (Esterase P)	DRSC11163	0.00404	-0.205	
Lim3	DRSC02475	0.0992	1.73	
Lim3	DRSC03363	4.52	7.06	
Lim3	DRSC22183	3.48	2.57	
Lim3	DRSC22650	-3.43	-1.51	
Lim3	DRSC23034	0.176	3.3	
mRpL30 (mitochondrial ribosomal protein L30)	DRSC18416	1.93	2.15	
CG7706	DRSC16295	0.328	-2.54	
Kaz (Katazuke)	DRSC14637	0.324	0.0111	
CG6357	DRSC06979	-2.62	-0.606	
EMC4 (ER membrane protein complex subunit 4)	DRSC11638	1.08	1.56	
Atg5 (Autophagy-related 5)	DRSC18112	0.0135	-0.0499	-0.468
CG3655	DRSC18181	-0.617	0.0319	
CG3655	DRSC18477	-1.55	-1.49	
CG3655	DRSC22688	0.626	0.187	
CG6674	DRSC10692	1.06	-1.78	
CG34367	DRSC02238	-1.57	-0.673	
CG34367	DRSC02850	-0.515	0.0581	
Hs3st-B (Heparan sulfate 3-O sulfotransferase-B)	DRSC20067	2.18	0.458	
CG13589	DRSC04225	0.707	0.196	
Fpps (Farnesyl pyrophosphate synthase)	DRSC07429	-0.113	-0.772	
Rac1	DRSC08688	-0.0511	1.1	
CG9380	DRSC04549	-0.365	2.12	
CG32832	DRSC01562	-0.28	0.0731	
RhoGAP18B (Rho GTPase activating protein at 18B)	DRSC19763	0.331	0.421	
RhoGAP18B (Rho GTPase activating protein at 18B)	DRSC20047	-1.9	0.244	
RhoGAP18B (Rho GTPase activating protein at 18B)	DRSC20048	-3.03	-2.27	
RhoGAP18B (Rho GTPase activating protein at 18B)	DRSC20049	-1.56	-0.419	
MstProx	DRSC12458	0.583	0.458	
MstProx	DRSC12601	2.62	0.341	
Gr89a (Gustatory receptor 89a)	DRSC15023	2.1	-0.93	
Dis3	DRSC16034	0.561	0.273	
escl	DRSC02828	-1.97	0.0643	
cnc (cap-n-collar)	DRSC14676	0.529	0.175	
cnc (cap-n-collar)	DRSC15289	-2.58	-1.09	
cnc (cap-n-collar)	DRSC15600	-0.209	-0.539	
cnc (cap-n-collar)	DRSC15601	-0.136	-3.51	

12 entries from above, set out differently.
Coq2 (Coenzyme Q biosynthesis protein 2) [DRSC21366]
- droplet/nuclear area B-score, replicate 1: 0.771
- droplet/nuclear area B-score, replicate 2: -1.5

bcd (bicoid) [DRSC12624]
- droplet/nuclear area B-score, replicate 1: 0.0903
- droplet/nuclear area B-score, replicate 2: 0.00171

Vha16-5 (Vacuolar H[+] ATPase 16kD subunit 5) [DRSC02986]
- droplet/nuclear area B-score, replicate 1: -0.266
- droplet/nuclear area B-score, replicate 2: -1.33

in (inturned) [DRSC11888]
- droplet/nuclear area B-score, replicate 1: -2.04
- droplet/nuclear area B-score, replicate 2: 0.486

mAChR-A (muscarinic Acetylcholine Receptor, A-type) [DRSC04702]
- droplet/nuclear area B-score, replicate 1: 0.96
- droplet/nuclear area B-score, replicate 2: -0.0113

Npc2h (Niemann-Pick type C-2h) [DRSC14297]
- droplet/nuclear area B-score, replicate 1: -0.817
- droplet/nuclear area B-score, replicate 2: 0.224

vers (versatile) [DRSC10715]
- droplet/nuclear area B-score, replicate 1: 3.48
- droplet/nuclear area B-score, replicate 2: 0.777

vers (versatile) [DRSC23232]
- droplet/nuclear area B-score, replicate 1: -0.0394
- droplet/nuclear area B-score, replicate 2: 0.0241

CG32237 [DRSC08312]
- droplet/nuclear area B-score, replicate 1: 0.723
- droplet/nuclear area B-score, replicate 2: 0.478

CG32237 [DRSC08315]
- droplet/nuclear area B-score, replicate 1: -1.29
- droplet/nuclear area B-score, replicate 2: -1.42

CG30036 [DRSC21334]
- droplet/nuclear area B-score, replicate 1: -0.06
- droplet/nuclear area B-score, replicate 2: 2.13

CG11911 [DRSC00331]
- droplet/nuclear area B-score, replicate 1: -0.793
- droplet/nuclear area B-score, replicate 2: -1.47
